From paper doi:10.1101/2021.07.09.451832
Read-outs that look alike come from different tables or passages of the source. No constants are given. Whether binding was seen depends on the method and setting. For some assays here: Binding seen in cells or lysates may run through a third protein. Some results given as binding are weak or reduced against the parent protein; the word gives no strength. For some assays here: Tags and fused reporters may be left off the sequences shown. Each block holds one molecule with its values, some of them ahead of it.

Chains of the proteins cited; added tags and fusions are not shown. Lines headed by an entry give the natural chain unless they say otherwise; changes in a name come on top.
UniProt O75460: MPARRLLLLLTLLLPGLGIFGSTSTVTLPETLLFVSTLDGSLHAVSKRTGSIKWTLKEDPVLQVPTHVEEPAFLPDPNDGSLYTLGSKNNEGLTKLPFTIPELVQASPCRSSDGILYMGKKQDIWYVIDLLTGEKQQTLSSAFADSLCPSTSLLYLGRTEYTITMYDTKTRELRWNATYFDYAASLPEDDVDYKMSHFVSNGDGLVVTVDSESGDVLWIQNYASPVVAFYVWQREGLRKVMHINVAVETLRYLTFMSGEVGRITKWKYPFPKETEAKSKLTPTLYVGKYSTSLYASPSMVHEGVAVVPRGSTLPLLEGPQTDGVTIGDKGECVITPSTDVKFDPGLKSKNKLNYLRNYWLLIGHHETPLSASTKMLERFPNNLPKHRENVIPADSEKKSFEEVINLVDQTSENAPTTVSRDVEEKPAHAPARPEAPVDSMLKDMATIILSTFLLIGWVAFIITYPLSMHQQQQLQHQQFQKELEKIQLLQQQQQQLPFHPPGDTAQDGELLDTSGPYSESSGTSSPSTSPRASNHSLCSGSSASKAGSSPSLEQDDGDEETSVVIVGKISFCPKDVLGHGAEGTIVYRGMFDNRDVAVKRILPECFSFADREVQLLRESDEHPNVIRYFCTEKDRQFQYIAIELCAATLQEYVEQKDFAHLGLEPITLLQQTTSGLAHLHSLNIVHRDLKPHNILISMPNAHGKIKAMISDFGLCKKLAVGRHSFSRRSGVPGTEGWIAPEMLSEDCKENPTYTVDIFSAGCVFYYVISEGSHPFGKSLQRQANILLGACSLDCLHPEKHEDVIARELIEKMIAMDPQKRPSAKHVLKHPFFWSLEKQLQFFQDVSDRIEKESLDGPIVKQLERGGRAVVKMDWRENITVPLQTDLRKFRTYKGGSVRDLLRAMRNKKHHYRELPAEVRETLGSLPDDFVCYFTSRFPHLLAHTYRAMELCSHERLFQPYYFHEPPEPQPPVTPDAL
UniProt P31749: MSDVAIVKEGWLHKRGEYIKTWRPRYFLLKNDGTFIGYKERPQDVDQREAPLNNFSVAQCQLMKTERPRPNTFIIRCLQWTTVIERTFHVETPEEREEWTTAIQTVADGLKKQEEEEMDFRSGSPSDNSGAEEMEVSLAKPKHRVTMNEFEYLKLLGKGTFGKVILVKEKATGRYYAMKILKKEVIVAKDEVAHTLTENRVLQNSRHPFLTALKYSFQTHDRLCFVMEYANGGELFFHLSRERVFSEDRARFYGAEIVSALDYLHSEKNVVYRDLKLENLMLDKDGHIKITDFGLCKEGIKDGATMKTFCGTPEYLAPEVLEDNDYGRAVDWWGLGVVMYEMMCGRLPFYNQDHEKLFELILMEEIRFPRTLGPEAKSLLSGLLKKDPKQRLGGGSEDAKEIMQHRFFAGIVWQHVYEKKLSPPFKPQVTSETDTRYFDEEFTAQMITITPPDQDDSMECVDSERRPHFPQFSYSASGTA

Columns and labels:
[1] = molecular target: IRE1 (Inositol requiring enzyme 1), IRE1-pcDNA3.1 (human) (UniProt O75460); assay: co-IP
[2] = molecular target: T1, sMEK1 (sMEK1-pcDNA3.1) (human) (UniProt Q6IN85); assay: co-IP
T1 sequence: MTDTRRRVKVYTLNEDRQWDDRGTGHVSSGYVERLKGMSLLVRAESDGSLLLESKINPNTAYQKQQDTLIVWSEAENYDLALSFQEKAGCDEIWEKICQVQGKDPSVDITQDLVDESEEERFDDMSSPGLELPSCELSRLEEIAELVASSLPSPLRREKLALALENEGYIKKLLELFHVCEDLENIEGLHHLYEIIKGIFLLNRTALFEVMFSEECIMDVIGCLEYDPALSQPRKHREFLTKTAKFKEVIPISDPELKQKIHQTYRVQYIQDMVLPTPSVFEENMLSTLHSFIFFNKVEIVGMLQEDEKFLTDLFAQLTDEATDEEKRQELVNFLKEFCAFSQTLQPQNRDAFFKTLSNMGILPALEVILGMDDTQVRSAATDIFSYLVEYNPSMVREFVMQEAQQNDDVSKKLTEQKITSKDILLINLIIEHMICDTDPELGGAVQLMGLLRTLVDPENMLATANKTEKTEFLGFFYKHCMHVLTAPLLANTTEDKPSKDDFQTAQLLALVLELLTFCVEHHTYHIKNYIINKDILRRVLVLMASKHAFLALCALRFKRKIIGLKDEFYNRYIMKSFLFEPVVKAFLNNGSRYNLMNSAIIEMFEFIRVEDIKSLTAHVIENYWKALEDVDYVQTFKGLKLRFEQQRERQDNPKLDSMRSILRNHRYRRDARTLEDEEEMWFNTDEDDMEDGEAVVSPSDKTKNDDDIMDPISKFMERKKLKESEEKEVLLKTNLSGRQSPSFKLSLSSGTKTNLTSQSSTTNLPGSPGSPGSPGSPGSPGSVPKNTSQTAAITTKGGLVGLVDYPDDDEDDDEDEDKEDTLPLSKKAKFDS

[3] = molecular target: T2, sMEK1 fused to the Gal4 binding domain (sMEK1-pGBT9) (human) (UniProt Q6IN85); assay: two-hybrid
T2 sequence: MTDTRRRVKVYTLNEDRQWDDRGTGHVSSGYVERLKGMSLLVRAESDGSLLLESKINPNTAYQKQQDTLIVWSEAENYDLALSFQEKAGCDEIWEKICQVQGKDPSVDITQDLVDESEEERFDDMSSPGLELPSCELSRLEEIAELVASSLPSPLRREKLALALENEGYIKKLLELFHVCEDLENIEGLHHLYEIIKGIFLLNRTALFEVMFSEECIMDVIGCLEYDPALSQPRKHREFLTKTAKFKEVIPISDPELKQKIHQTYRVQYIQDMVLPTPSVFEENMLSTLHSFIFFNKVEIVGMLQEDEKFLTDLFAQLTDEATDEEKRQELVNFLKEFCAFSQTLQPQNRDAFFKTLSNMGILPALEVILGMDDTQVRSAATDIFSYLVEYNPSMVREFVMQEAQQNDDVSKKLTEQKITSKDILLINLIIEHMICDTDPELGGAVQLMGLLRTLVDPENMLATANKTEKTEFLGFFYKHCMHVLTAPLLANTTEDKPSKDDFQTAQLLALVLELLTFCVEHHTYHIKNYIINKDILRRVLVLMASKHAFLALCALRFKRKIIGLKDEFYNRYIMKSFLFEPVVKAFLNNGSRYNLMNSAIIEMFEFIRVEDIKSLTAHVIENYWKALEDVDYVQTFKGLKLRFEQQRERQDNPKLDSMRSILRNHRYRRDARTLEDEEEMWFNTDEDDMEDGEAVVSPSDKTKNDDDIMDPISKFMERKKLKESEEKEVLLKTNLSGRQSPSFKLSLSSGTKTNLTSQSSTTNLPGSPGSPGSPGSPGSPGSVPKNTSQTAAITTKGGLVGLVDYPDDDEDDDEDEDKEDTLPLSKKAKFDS

Akt-HA (Akt-HA-pcDNA3.1) [4] = molecular target: Akt-HA (Akt-HA-pcDNA3.1) (UniProt P31749); assay: co-IP
Akt-pGBT9 = Akt-pGBT9 (UniProt P31749); assay: two-hybrid
[5] = molecular target: IRE1 (Inositol requiring enzyme 1), IRE1-pcDNA3.1 (human) (UniProt O75460); assay: co-IP; remark: listed apart in the source
Akt-HA (Akt-HA-pcDNA3.1) [6] = molecular target: Akt-HA (Akt-HA-pcDNA3.1) (UniProt P31749); assay: co-IP; remark: listed apart in the source

binding [1]: binds | binding [2]: binds
Molecule: Akt-HA (Akt-HA-pcDNA3.1) (from UniProt P31749 1-480)

binding (Akt-pGBT9): binds | binding [3]: binds
Molecule: IRE1 fused to the Gal4 transcription activation domain (IRE1-pGAD424) (from UniProt O75460 1-977)

binding [5]: binds
B1: sMEK1-GST (sMEK1-pEBG-GST) (protein, UniProt Q6IN85 1-833)
chain: MTDTRRRVKVYTLNEDRQWDDRGTGHVSSGYVERLKGMSLLVRAESDGSLLLESKINPNTAYQKQQDTLIVWSEAENYDLALSFQEKAGCDEIWEKICQVQGKDPSVDITQDLVDESEEERFDDMSSPGLELPSCELSRLEEIAELVASSLPSPLRREKLALALENEGYIKKLLELFHVCEDLENIEGLHHLYEIIKGIFLLNRTALFEVMFSEECIMDVIGCLEYDPALSQPRKHREFLTKTAKFKEVIPISDPELKQKIHQTYRVQYIQDMVLPTPSVFEENMLSTLHSFIFFNKVEIVGMLQEDEKFLTDLFAQLTDEATDEEKRQELVNFLKEFCAFSQTLQPQNRDAFFKTLSNMGILPALEVILGMDDTQVRSAATDIFSYLVEYNPSMVREFVMQEAQQNDDVSKKLTEQKITSKDILLINLIIEHMICDTDPELGGAVQLMGLLRTLVDPENMLATANKTEKTEFLGFFYKHCMHVLTAPLLANTTEDKPSKDDFQTAQLLALVLELLTFCVEHHTYHIKNYIINKDILRRVLVLMASKHAFLALCALRFKRKIIGLKDEFYNRYIMKSFLFEPVVKAFLNNGSRYNLMNSAIIEMFEFIRVEDIKSLTAHVIENYWKALEDVDYVQTFKGLKLRFEQQRERQDNPKLDSMRSILRNHRYRRDARTLEDEEEMWFNTDEDDMEDGEAVVSPSDKTKNDDDIMDPISKFMERKKLKESEEKEVLLKTNLSGRQSPSFKLSLSSGTKTNLTSQSSTTNLPGSPGSPGSPGSPGSPGSVPKNTSQTAAITTKGGLVGLVDYPDDDEDDDEDEDKEDTLPLSKKAKFDS

binding (Akt-HA (Akt-HA-pcDNA3.1) [6]): binds
B2: sMEK1 (sMEK1-pcDNA3.1) (protein, UniProt Q6IN85 1-833)
chain: MTDTRRRVKVYTLNEDRQWDDRGTGHVSSGYVERLKGMSLLVRAESDGSLLLESKINPNTAYQKQQDTLIVWSEAENYDLALSFQEKAGCDEIWEKICQVQGKDPSVDITQDLVDESEEERFDDMSSPGLELPSCELSRLEEIAELVASSLPSPLRREKLALALENEGYIKKLLELFHVCEDLENIEGLHHLYEIIKGIFLLNRTALFEVMFSEECIMDVIGCLEYDPALSQPRKHREFLTKTAKFKEVIPISDPELKQKIHQTYRVQYIQDMVLPTPSVFEENMLSTLHSFIFFNKVEIVGMLQEDEKFLTDLFAQLTDEATDEEKRQELVNFLKEFCAFSQTLQPQNRDAFFKTLSNMGILPALEVILGMDDTQVRSAATDIFSYLVEYNPSMVREFVMQEAQQNDDVSKKLTEQKITSKDILLINLIIEHMICDTDPELGGAVQLMGLLRTLVDPENMLATANKTEKTEFLGFFYKHCMHVLTAPLLANTTEDKPSKDDFQTAQLLALVLELLTFCVEHHTYHIKNYIINKDILRRVLVLMASKHAFLALCALRFKRKIIGLKDEFYNRYIMKSFLFEPVVKAFLNNGSRYNLMNSAIIEMFEFIRVEDIKSLTAHVIENYWKALEDVDYVQTFKGLKLRFEQQRERQDNPKLDSMRSILRNHRYRRDARTLEDEEEMWFNTDEDDMEDGEAVVSPSDKTKNDDDIMDPISKFMERKKLKESEEKEVLLKTNLSGRQSPSFKLSLSSGTKTNLTSQSSTTNLPGSPGSPGSPGSPGSPGSVPKNTSQTAAITTKGGLVGLVDYPDDDEDDDEDEDKEDTLPLSKKAKFDS

Continued, molecule first:

Molecule: Akt-pGAD424 (from UniProt P31749 1-480)
binding [3]: binds

Molecule: IRE1 (Inositol requiring enzyme 1), IRE1-pcDNA3.1 (from UniProt O75460 19-977)
binding (Akt-HA (Akt-HA-pcDNA3.1) [4]): binds
